Values of other authors as cited in US20200399681A1, “ASSAY FOR DETECTION OF ANDROGEN RECEPTOR VARIANTS” (Cornell University, priority 2018, published 2020).
Like-named read-outs stand apart in the source and are kept apart here. At least one structure is not confirmed: it was looked up by name or label, or the drawing left a doubt.

What was measured:
prostate cancer patients [1] = test system: prostate cancer patients
prostate cancer patients [2] = test system: prostate cancer patients; remark: listed apart in the source
[3] = pts without high AR-V7 expression

In the case of C[C@]12CC[C@H](O)CC1=CC[C@@H]1[C@@H]2CC[C@]2(C)C(c3cccnc3)=CC[C@@H]12 [abi, abiraterone], the “PSA progression-free survival, median” value (prostate cancer patients [1]; AR-V7- (negative) pts) is given as “not reached; P < 0.001) & OS”, the PSA response rate (prostate cancer patients [1]; AR-V7- (negative) pts) is given as 68% and the “overall survival (OS), median” value (prostate cancer patients [1]; AR-V7- (negative) pts) is given as “not”. For the same molecule, the “PSA progression-free survival, median” value (prostate cancer patients [1]; AR-V7-positive pts) was “survival (median, 1.3 months vs”, the PSA response rate (prostate cancer patients [1]; AR-V7-positive pts) was 0% and the “overall survival (OS), median” value (prostate cancer patients [1]; AR-V7-positive pts) was 10.6 months. The “median OS” value (prostate cancer patients [2]; pts with high AR-V7 expression (the shorter OS)) was 27.2 months in the abi cohort, the “time to treatment failure (TTF), median” value (prostate cancer patients [2]; pts with high AR-V7 expression (top tertile, >19 copies/mg RNA)) was 8.0 months and the “median OS” value (prostate cancer patients [2]; [3]) was “(median OS: 35.6 months versus”. The “time to treatment failure (TTF), median” value (prostate cancer patients [2]; [3]) was 15.6 months.
